Values quoted from earlier work as cited in patent publication US20170173060A1, “ACTIVATION OF THE ENDOGENOUS ILEAL BRAKE HORMONE PATHWAY FOR ORGAN REGENERATION AND RELATED COMPOSITIONS, METHODS OF TREATMENT, DIAGNOSTICS, AND REGULATORY SYSTEMS” (VOLANT HOLDINGS GMBH, priority 2014, published 2017).
At least one structure is not confirmed: it was looked up by name or label, or the drawing left a doubt.

Experiments:
[1] = previously untreated T2D patients; cited from earlier work
[2] = test system: Otsuka Long-Evans Tokushima Fatty (OLETF) rats; conditions: cited from earlier work

SMILES	reduction of fasting serum insulin levels [1] [%]	reduction of serum LPS [1] [%]	proportion of rats diabetic by OGTT at 20 weeks ([2]; 100 mg/kg/day from 5 weeks of age, untreated 40%) [%]	proportion of rats diabetic by OGTT at 30 weeks ([2]; 100 mg/kg/day from 5 weeks of age, untreated 89%) [%]	cardiac eNOS overexpression ([2]; 30 weeks)	left ventricular diastolic function ([2]; from 20 weeks)
CN(CCOc1ccc(CC2SC(=O)NC2=O)cc1)c1ccccn1 (stereo not drawn) [Rosiglitazone (RSG), Rosiglitazone]	51	35	–	–	–	–
CC[C@H](C)C(=O)O[C@H]1C[C@H](O)C=C2C=C[C@H](C)[C@H](CC[C@@H](O)C[C@@H](O)CC(=O)O)[C@H]21 [pravastatin]	–	–	0	30	2.5 fold of control LETO	remained normal
